Data as given in PubChem BioAssay AID652243 (Drosophila RNAi Screening Center, 2013).
Assay: 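Knock-downs that decrease or increase androgen receptor reporter signal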 (primary screen). Cells: Drosophila S2R+ cells. Reagent: long dsRNA against Drosophila genes. Timing: 72 h (48 h, then 24 h hormone). Treatment: synthetic androgen R1881 at 10 nM for 24 h. Detection: 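Firefly light from an androgen-responsive reporter and Renilla control light per well, raw and unnormalised, for each of two replicates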. Reading the numbers: firefly reporter light: higher = more light from androgen-responsive reporter; Renilla control light: higher = more constitutive control signal (cell number, transfection). Hit rule: 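Hit when the log firefly-to-Renilla ratio dropped or increased by a fixed fold versus the mean of GFP or LacZ controls across duplicate plates; lowering cut given as 1.5 and as 3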. Calls: active = hit: reporter lowered or raised; inactive = no hit.
In all, the deposit lists about 24,000 reagents; below is a random part of those that have a named target and a result. In the full data, 246 (1%) are marked active. 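Plates not normalised; calls are printed but the firefly/Renilla ratio behind them is not deposited; fold cut for lowering reported inconsistently.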 Raw values vary from plate to plate and are shown uncorrected. No sequences are given here. The record does not give: the amount of reagent.

| firefly reporter light, replicate 1 | firefly reporter light, replicate 2 | Renilla control light, replicate 1 | Renilla control light, replicate 2 | Outcome | target gene | DRSC id |
| --- | --- | --- | --- | --- | --- | --- |
| 6.63e5 | 4.65e5 | 7.25e5 | 5.23e5 | inactive | Cnx99A | DRSC25426 |
| 1.59e5 | 2.54e5 | 2.89e6 | 3.44e6 | inactive | CG42686 (retired record) | DRSC15248 |
| 7.43e5 | 7.11e5 | 9.73e5 | 1.65e6 | inactive | CG42686 (retired record) | DRSC22995 |
| 2.55e5 | 2.70e5 | 9.80e5 | 7.95e5 | inactive | CG42686 (retired record) | DRSC25798 |
| 7.00e5 | 5.98e5 | 1.27e6 | 1.27e6 | inactive | CG42686 (retired record) | DRSC29345 |
| 8.58e5 | 7.43e5 | 2.83e6 | 2.87e6 | inactive | CG10750 | DRSC02105 |
| 3.56e5 | 3.95e5 | 8.97e5 | 8.97e5 | inactive | CG10750 | DRSC29624 |
| 4.64e5 | 1.47e5 | 1.36e6 | 5.18e5 | inactive | CR6900 | DRSC20018 |
| 1.34e5 | 1.69e5 | 2.85e6 | 2.17e6 | inactive | Nazo | DRSC14343 |
| 1.84e5 | 1.67e5 | 6.05e5 | 4.51e5 | inactive | CG1494 | DRSC20509 |
| 73917 | 1.14e5 | 7.42e5 | 6.83e5 | inactive | Irk2 | DRSC15569 |
| 41693 | 49962 | 3.52e5 | 4.27e5 | inactive | CG5618 | DRSC11780 |
| 5.26e5 | 4.85e5 | 9.20e5 | 8.92e5 | inactive | CG5618 | DRSC28806 |
| 2.29e5 | 1.86e5 | 2.14e6 | 2.03e6 | inactive | scro | DRSC17102 |
| 9.24e5 | 9.03e5 | 2.23e6 | 1.88e6 | inactive | CG12104 | DRSC08254 |
| 2.42e5 | 3.43e5 | 7.02e5 | 8.85e5 | inactive | CG12104 | DRSC26773 |
| 1.28e6 | 1.24e6 | 1.48e6 | 1.14e6 | inactive | CG10650 | DRSC02085 |
| 8.23e5 | 7.33e5 | 2.62e6 | 2.72e6 | inactive | TTLL4A | DRSC02528 |
| 5.15e5 | 4.95e5 | 1.38e6 | 1.11e6 | inactive | TTLL4A | DRSC28124 |
| 1.73e5 | 2.03e5 | 3.61e6 | 3.58e6 | inactive | Pros28.2 (retired record) | DRSC16800 |
| 2.75e5 | 2.81e5 | 1.10e6 | 1.01e6 | inactive | Pros28.2 (retired record) | DRSC28895 |
| 4.58e5 | 4.77e5 | 2.41e6 | 2.77e6 | inactive | CG31157 | DRSC21832 |
| 4.24e5 | 4.73e5 | 1.44e6 | 1.07e6 | inactive | CG31157 | DRSC29159 |
| 2.16e5 | 2.42e5 | 2.13e6 | 1.84e6 | inactive | CG42758 | DRSC10021 |
| 6.45e5 | 4.58e5 | 6.32e5 | 6.61e5 | inactive | NaPi-III | DRSC10893 |
| 5.24e5 | 8.81e5 | 7.25e5 | 1.59e6 | inactive | NaPi-III | DRSC22953 |
| 7.80e5 | 7.82e5 | 1.44e6 | 1.96e6 | inactive | NaPi-III | DRSC28299 |
| 4.24e5 | 4.46e5 | 1.18e6 | 7.99e5 | inactive | NaPi-III | DRSC28977 |
| 2.44e5 | 2.21e5 | 2.60e5 | 5.93e5 | inactive | beat-Vb | DRSC12940 |
| 4.24e5 | 5.07e5 | 2.42e6 | 3.56e6 | inactive | beat-Vb | DRSC14844 |
| 71828 | 96568 | 1.64e6 | 2.09e6 | inactive | beat-Vb | DRSC14845 |
| 1.42e5 | 1.61e5 | 9.28e5 | 7.80e5 | inactive | pcm | DRSC20361 |
| 79650 | 79579 | 9.75e5 | 8.61e5 | inactive | pths | DRSC03171 |
| 4.54e5 | 2.60e5 | 3.08e6 | 2.18e6 | inactive | CG12640 | DRSC17847 |
| 2.76e5 | 3.05e5 | 3.18e5 | 3.48e5 | inactive | CG12640 | DRSC26324 |
| 8.48e5 | 8.47e5 | 1.94e6 | 1.49e6 | inactive | FASN1 | DRSC00268 |
| 85435 | 96593 | 1.37e5 | 1.48e5 | inactive | FASN1 | DRSC26498 |

Part of the list above, limited to “Renilla control light, replicate 1”.
NaPi-III [DRSC10893] = 6.32e5
NaPi-III [DRSC22953] = 7.25e5
NaPi-III [DRSC28299] = 1.44e6
NaPi-III [DRSC28977] = 1.18e6

Additional records follow:
| firefly reporter light, replicate 1 | firefly reporter light, replicate 2 | Renilla control light, replicate 1 | Renilla control light, replicate 2 | Outcome | target gene | DRSC id |
| --- | --- | --- | --- | --- | --- | --- |
| 1.27e5 | 97376 | 1.24e6 | 6.60e5 | inactive | Sox102F | DRSC17204 |
| 3.41e5 | 3.64e5 | 1.05e6 | 1.06e6 | inactive | Sox102F | DRSC25915 |
| 2.55e5 | 1.92e5 | 2.00e6 | 1.28e6 | inactive | CG9150 | DRSC03148 |
| 8.51e5 | 7.59e5 | 1.18e6 | 1.32e6 | inactive | CG9150 | DRSC25676 |
| 2.59e5 | 1.99e5 | 2.56e6 | 1.99e6 | inactive | Cp36 | DRSC18452 |
| 2.04e5 | 2.66e5 | 4.31e5 | 5.94e5 | inactive | Cp36 | DRSC27244 |
| 2.25e5 | 2.26e5 | 3.07e6 | 3.19e6 | inactive | Ir11a | DRSC19699 |
| 1.00e5 | 44843 | 6.93e5 | 4.06e5 | inactive | Prat | DRSC16797 |
| 84656 | 35202 | 2.53e5 | 3.08e5 | inactive | Wnt4 | DRSC00976 |
| 2.08e5 | 2.00e5 | 1.74e6 | 1.38e6 | inactive | Wnt4 | DRSC03477 |
| 3.32e5 | 2.74e5 | 3.23e6 | 2.26e6 | inactive | Smyd3 | DRSC17744 |
| 4.60e5 | 4.18e5 | 2.72e5 | 3.11e5 | inactive | Smyd3 | DRSC26723 |
| 6.88e5 | 7.80e5 | 1.68e6 | 1.54e6 | inactive | Smyd3 | DRSC38965 |
| 2.41e5 | 1.25e5 | 1.17e6 | 5.52e5 | inactive | CG7058 | DRSC20021 |
| 3.01e5 | 2.40e5 | 5.20e5 | 4.41e5 | inactive | CG7058 | DRSC25937 |
| 5.38e5 | 6.49e5 | 2.61e6 | 3.55e6 | inactive | tsr | DRSC04718 |
| 5.53e5 | 6.44e5 | 1.15e6 | 1.27e6 | inactive | pio | DRSC04386 |
| 3.62e5 | 5.03e5 | 1.44e6 | 1.44e6 | inactive | pio | DRSC29371 |
| 2.88e5 | 3.06e5 | 6.13e5 | 2.21e5 | inactive | Egfr | DRSC03871 |
| 9.33e5 | 5.26e5 | 2.52e6 | 1.70e6 | inactive | Egfr | DRSC04613 |
| – | – | – | – | inactive | Egfr | DRSC36621 |
| – | – | – | – | inactive | Egfr | DRSC36622 |
